# Experimental data: the supplement of paper PMC7238544
# Where a name gives a salt, the structure may show the parent alone. ± gives the standard deviation of the averaged measurements. Some of the results follow. The data scatter; read single values as rough.
# Legend:
# hAMSC donor 1 [1] = experiment: Hoechst total cell count ratio vs vehicle control; higher = more cells (less toxicity)
# hAMSC donor 2 [2] = experiment: as above
# hAMSC donor 2 [3] = experiment: transgenic luciferase activity (RLU/mg protein) fold change vs vehicle control (ratio); higher = more transgene expression
# hAMSC donor 1 [4] = experiment: transfection efficiency (EGFP+ cells / Hoechst count) fold change vs vehicle control (ratio); hAMSC are human adipose-derived mesenchymal stem cells given an EGFP-luciferase plasmid by lipofection; higher = enhanced transfection
# hAMSC donor 2 [5] = experiment: as above
# [6] = priming compound concentration 0.2 µM
# [7] = priming compound concentration 1.7 µM
# [8] = priming compound concentration 13 µM
SMILES,Hoechst total cell count ratio (hAMSC donor 1 [1]; [6]),Hoechst total cell count ratio (hAMSC donor 1 [1]; [7]),Hoechst total cell count ratio (hAMSC donor 1 [1]; [8]),Hoechst total cell count ratio (hAMSC donor 2 [2]; [6]),Hoechst total cell count ratio (hAMSC donor 2 [2]; [7]),Hoechst total cell count ratio (hAMSC donor 2 [2]; [8]),transgenic luciferase activity (hAMSC donor 2 [3]; [8]),transfection efficiency (hAMSC donor 1 [4]; [6]),transfection efficiency (hAMSC donor 1 [4]; [7]),transfection efficiency (hAMSC donor 1 [4]; [8]),transfection efficiency (hAMSC donor 2 [5]; [6]),transfection efficiency (hAMSC donor 2 [5]; [7]),transfection efficiency (hAMSC donor 2 [5]; [8]),transgenic luciferase activity (hAMSC donor 2 [3]; [7])
Fc1ccc([C@@H]2CCNC[C@H]2COc2ccc3c(c2)OCO3)cc1 [Paroxetine maleate],1.08 ± 0.063,1.48 ± 0.19,1.47 ± 0.044,1.01 ± 0.39,1.18 ± 0.014,1.05 ± 0.12,0.474 ± 0.013,0.947 ± 0.11,0.733 ± 0.21,0.659 ± 0.21,1.22 ± 0.21,1.09 ± 0.084,0.831 ± 0.085,–
Nc1c2c(nc3ccccc13)CCCC2 [Tacrine hydrochloride],1.28 ± 0.15,1.13 ± 0.17,1.38 ± 0.061,1.13 ± 0.024,1.2 ± 0.019,1.83 ± 0.21,–,1.14 ± 0.19,1.33 ± 0.39,0.881 ± 0.089,1.06 ± 0.15,1.11 ± 0.2,1.02 ± 0.36,0.453 ± 0.019
Nc1ccn([C@@H]2CS[C@H](CO)O2)c(=O)n1 [Lamivudine],1.12 ± 0.21,1.43 ± 0.25,1.3 ± 0.15,0.986 ± 0.21,1 ± 0.083,0.842 ± 0.015,0.676 ± 0.083,1.27 ± 0.52,0.913 ± 0.36,0.887 ± 0.18,1.08 ± 0.015,1.16 ± 0.16,1.28 ± 0.18,–
CC(CCCCC(=O)Nc1ccc(C(F)(F)F)cc1)NCCc1cnc[nH]1 (stereo unspecified) [HTMT dimaleate],1.47 ± 0.17,1.3 ± 0.23,1.39 ± 0.038,0.987 ± 0.081,0.999 ± 0.021,0.952 ± 0.068,0.677 ± 0.13,0.752 ± 0.064,0.949 ± 0.18,0.881 ± 0.1,0.942 ± 0.29,1.19 ± 0.15,0.711 ± 0.033,–
COC(=O)CCc1ccc(OCC(O)CNC(C)C)cc1 (stereo unspecified) [Esmolol hydrochloride],1.11 ± 0.033,1.19 ± 0.29,1.19 ± 0.026,0.957 ± 0.05,1.07 ± 0.062,0.961 ± 0.11,0.553 ± 0.07,1 ± 0.049,0.791 ± 0.15,1.19 ± 0.068,1.26 ± 0.17,1.31 ± 0.091,1.49 ± 0.11,–
CC(C(=O)O)c1ccc(CC2CCCC2=O)cc1 (stereo unspecified) [Loxoprofen sodium],1.17 ± 0.2,1.06 ± 0.19,1.11 ± 0.15,1.22 ± 0.036,1.31 ± 0.088,1.01 ± 0.036,0.849 ± 0.19,1.39 ± 0.12,0.989 ± 0.063,0.803 ± 0.22,1.08 ± 0.12,1.14 ± 0.016,1.15 ± 0.29,–
COc1ccccc1OCC(O)CN1CCN(CC(=O)Nc2c(C)cccc2C)CC1 (stereo unspecified) [Ranolazine dihydrochloride],1.58 ± 0.32,1.26 ± 0.32,1.22 ± 0.22,1.11 ± 0.11,1.19 ± 0.029,1.28 ± 0.1,–,1.03 ± 0.35,1.38 ± 0.21,1.25 ± 0.1,1.11 ± 0.16,1.1 ± 0.074,1.21 ± 0.16,0.376 ± 0.048
